Record: PubChem BioAssay AID652272 (Drosophila RNAi Screening Center, 2013)
In all, the deposit lists about 21,000 reagents; below is an unselected part of those that have a named target and a result. In the full data, 503 (2.4%) were called active. 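Raw plate light values, not normalised; calls rest on replicate z-scores that were not deposited; hits include reporter decreases as well as increases.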 A plus sign joins genes that one reagent is predicted to hit. No sequences are given here. Not stated in the record: the amount of reagent, the time to read-out.

Purpose: 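Finding fly genes that regulate Hedgehog signal transduction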 (primary screen)
Cell system: Drosophila clone 8 (Cl8) cells
Reagents: long dsRNA against Drosophila genes
Measured: 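Firefly light from a Hedgehog-responsive ptc promoter reporter and Renilla reference light, both read on a plate reader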
Reading the numbers: firefly Hh reporter signal: higher = more ptc reporter light; Renilla reference signal: higher = more Renilla control light
Active means: 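Called a hit if the two-replicate mean z-score lies below -2 or above +3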
Calls: active = hit: reporter lowered or raised; inactive = not a hit

| Target gene | DRSC id | firefly Hh reporter signal, replicate 1 | firefly Hh reporter signal, replicate 2 | Renilla reference signal, replicate 1 | Renilla reference signal, replicate 2 | call |
| --- | --- | --- | --- | --- | --- | --- |
| CG5377 | DRSC15783 | 5.09e5 | 1.34e5 | 32944 | 389 | inactive |
| Cyp12b2 | DRSC07364 | 95544 | 46392 | 2722 | 3578 | inactive |
| Or47b | DRSC07492 | 1.04e5 | 46129 | 2507 | 3549 | inactive |
| alien | DRSC03482 | 71865 | 84092 | 2256 | 2618 | inactive |
| orb2 + CG43783 | DRSC10540 | 91472 | 1.02e5 | 4197 | 3904 | inactive |
| orb2 + CG43783 | DRSC10541 | 48440 | 44192 | 4696 | 3797 | inactive |
| orb2 + CG43783 | DRSC10542 | 1.35e5 | 78081 | 6192 | 3221 | inactive |
| CG13891 | DRSC08361 | 80827 | 45674 | 2704 | 3186 | inactive |
| Cpr92A | DRSC16000 | 7.43e5 | 1.24e5 | 41276 | 2689 | inactive |
| lms | DRSC06387 | 73760 | 42883 | 2410 | 3264 | inactive |
| bab2 | DRSC08150 | 66310 | 27851 | 2227 | 2288 | inactive |
| bab2 | DRSC08380 | 42912 | 31367 | 1713 | 2640 | inactive |
| Menl-2 + Menl-1 | DRSC07469 | 1.25e5 | 76997 | 3692 | 6162 | inactive |
| Menl-2 + Menl-1 | DRSC07470 | 96401 | 55268 | 3003 | 4088 | inactive |

A few values from above.
For “firefly Hh reporter signal, replicate 1”, Or47b [DRSC07492] reads 1.04e5
Under “Renilla reference signal, replicate 2”, bab2 [DRSC08380] has 2640
For “firefly Hh reporter signal, replicate 2”, Cpr92A [DRSC16000] shows 1.24e5
Under “firefly Hh reporter signal, replicate 1”, lms [DRSC06387] reads 73760

Additional entries follow:
| Target gene | DRSC id | firefly Hh reporter signal, replicate 1 | firefly Hh reporter signal, replicate 2 | Renilla reference signal, replicate 1 | Renilla reference signal, replicate 2 | call |
| --- | --- | --- | --- | --- | --- | --- |
| CR16735 | DRSC15144 | 1.01e5 | 1.15e5 | 4128 | 3376 | inactive |
| CG7702 | DRSC16293 | 1.13e5 | 93569 | 3620 | 3589 | inactive |
| Cam | DRSC07353 | 1.32e5 | 68684 | 3592 | 5915 | inactive |
| Cam | DRSC07354 | 1.02e5 | 48321 | 2877 | 3901 | inactive |
| CG9988 | DRSC16587 | 1.04e5 | 89458 | 3623 | 2596 | inactive |
| CG10841 | DRSC14271 | 2.26e5 | 88529 | 8247 | 1080 | inactive |
| CG2182 | DRSC12308 | 1.06e5 | 95991 | 4105 | 3619 | inactive |
| Dhc64C | DRSC08656 | 1.39e5 | 56086 | 5025 | 2596 | inactive |
| Sodh2 | DRSC16865 | 1.57e5 | 2.15e5 | 5545 | 6628 | inactive |
